# Measurements taken from paper PMC7819943, “Rice protein-binding microarrays: a tool to detect cis-acting elements near promoter regions in rice”.
# Protein sequences, listed by entry. Tags and fused reporters are not part of them.
# UniProt Q0JBA9, entry or part of it: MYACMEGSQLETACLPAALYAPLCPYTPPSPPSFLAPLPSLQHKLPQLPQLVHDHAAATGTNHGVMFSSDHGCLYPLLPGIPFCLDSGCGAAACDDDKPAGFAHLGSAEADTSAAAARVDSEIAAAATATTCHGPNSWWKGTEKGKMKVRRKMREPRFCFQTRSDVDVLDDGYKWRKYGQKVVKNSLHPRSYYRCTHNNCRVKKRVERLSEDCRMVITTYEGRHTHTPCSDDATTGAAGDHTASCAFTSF
# The other results are listed elsewhere or left out.
# Biological target: OsWRKY34 (Oryza sativa, UniProt Q0JBA9 1-250)
# Assay: protein-binding microarray (RPBM); PBS, 2% BSA, 51.3 ng/ul salmon testes DNA, 50 uM zinc acetate, 200 nM TF, 25 C, 1 h; high values mean tight binding
# Details: protein: recombinant; tags: N-terminal polyhistidine and DsRed monomer fusion (pET32a); label: CyDye5-dUTP incorporated in the synthesized complementary strand; 3' TTTTT single-stranded linker to array surface; dsDNA, one strand shown
# How it was run: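 The binding signal is fluorescence intensity per array feature (arbitrary units). Readings came from an Axon 4000B scanner after a washed, 2% BSA-blocked, double-stranded custom Agilent array had been incubated for 1 h at 25 °C with 200 nM protein and 50 µM zinc acetate. The protein was a Ni–NTA-purified transcription factor fused N-terminally to polyhistidine and DsRed, expressed in E. coli BL21-CodonPlus.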
row,Sequence,binding signal
1,AAATTGTTGTACGGGGTATGTTATACTGGCCAGCTTTGTACGGAGTCACCTAGTGCAG,8600 fluorescence intensity (a.u.)
2,TTTTTCATTTGCAAATCGGTACCGTACGTGTTATTTCTCTCGGAGTCACCTAGTGCAG,11000 fluorescence intensity (a.u.)
3,AGTGTAATCTTGTAATTTTCTTCTGCTCTATCAATAGAACCGGAGTCACCTAGTGCAG,8360 fluorescence intensity (a.u.)
4,GCCCTTGTTTAGTTCCAAACTTTTTTTCAAACTTCCAACTCGGAGTCACCTAGTGCAG,9850 fluorescence intensity (a.u.)
5,CTGCCTCTTCATGCCGCTTATTAAAGTCTCCACCCTCCGCCGGAGTCACCTAGTGCAG,8530 fluorescence intensity (a.u.)
6,AGTTGTGGACTGGAAGAGAGGGGAGGCATGGGGACAAAGACGGAGTCACCTAGTGCAG,9320 fluorescence intensity (a.u.)
7,CCCAAGTTGGTTTCGAGCTCTACATCCATGTGCCTCCACTCGGAGTCACCTAGTGCAG,8440 fluorescence intensity (a.u.)
8,ACAGCGACCCGATCACTCTCTCACTGTCTCGTTCACGTAGCGGAGTCACCTAGTGCAG,8050 fluorescence intensity (a.u.)
9,GCATCAAACACTCTCATCTATGTTGGGGTTTTCACGTATACGGAGTCACCTAGTGCAG,9730 fluorescence intensity (a.u.)
10,AATCTACCCCTGTCTTCTCCATTCAATCGTTCATCCTTTCCGGAGTCACCTAGTGCAG,9070 fluorescence intensity (a.u.)
11,CAGTTCACTATTCTTTCTGCTATATACATGTATGATTTTACGGAGTCACCTAGTGCAG,9000 fluorescence intensity (a.u.)
12,TTCTGCGTGTGAGTGGGTTTTCTTCCTAGTGGTTTAAATACGGAGTCACCTAGTGCAG,12700 fluorescence intensity (a.u.)
13,TCTGTCAGAATCATGTGTTTTTCCTATCCCTCCATTTTTTCGGAGTCACCTAGTGCAG,8410 fluorescence intensity (a.u.)
14,CGCCGTTTAGTTTTTACTAACGTTTGACCATTTTTCTTATCGGAGTCACCTAGTGCAG,11700 fluorescence intensity (a.u.)
15,AATGCCCGACCTCGATCATCATCTCACACGTTGCTCATCACGGAGTCACCTAGTGCAG,12400 fluorescence intensity (a.u.)
16,CCAGCCACTTCCTCTCAACATCTTCTCATGTCTTTTTGTACGGAGTCACCTAGTGCAG,8360 fluorescence intensity (a.u.)
17,CGCATCCAACCCATCCTCACTTCTCAACTGATTCTCGTATCGGAGTCACCTAGTGCAG,8810 fluorescence intensity (a.u.)
18,GACATGGATCCTACGTAGTACTGCAACATACCAAATTACCCGGAGTCACCTAGTGCAG,9240 fluorescence intensity (a.u.)
19,ACTACCTTTAAACGCTATGGTTTGGGACTGCTCTCATGTACGGAGTCACCTAGTGCAG,9010 fluorescence intensity (a.u.)
20,CCTTGGGTGGGTACGGATTGGATTAGGGAGGGGAGCACAACGGAGTCACCTAGTGCAG,17600 fluorescence intensity (a.u.)
21,TTCTGTCAATTCCTTTCACCATTTTCAGGCTGAATTTTGTCGGAGTCACCTAGTGCAG,9250 fluorescence intensity (a.u.)

# Quoted from the listing.
# Value of CGCCGTTTAGTTTTTACTAACGTTTGACCATTTTTCTTATCGGAGTCACCTAGTGCAG under binding signal: 11700 fluorescence intensity (a.u.)
# Value of CCAGCCACTTCCTCTCAACATCTTCTCATGTCTTTTTGTACGGAGTCACCTAGTGCAG under binding signal: 8360 fluorescence intensity (a.u.)
# Value of TTCTGCGTGTGAGTGGGTTTTCTTCCTAGTGGTTTAAATACGGAGTCACCTAGTGCAG under binding signal: 12700 fluorescence intensity (a.u.)
# Value of AAATTGTTGTACGGGGTATGTTATACTGGCCAGCTTTGTACGGAGTCACCTAGTGCAG under binding signal: 8600 fluorescence intensity (a.u.)
# Value of GCCCTTGTTTAGTTCCAAACTTTTTTTCAAACTTCCAACTCGGAGTCACCTAGTGCAG under binding signal: 9850 fluorescence intensity (a.u.)

# (listing goes on)

row,Sequence,binding signal
1,CTCTTTACCAACACTATATAACCCGCAGTGGACCTGCAGTCGGAGTCACCTAGTGCAG,8060 fluorescence intensity (a.u.)
2,CCAATATTCTAAACATACATCCTAGCCATTTCAATTTTCACGGAGTCACCTAGTGCAG,8300 fluorescence intensity (a.u.)
3,GTGATGCCACCGCTATGTTGACCAAGTCTCGGCCAGCTTCCGGAGTCACCTAGTGCAG,12800 fluorescence intensity (a.u.)
4,ATAAATTTAGCCTCTTTTGTTTAGTATTGCAACTACCAATCGGAGTCACCTAGTGCAG,9720 fluorescence intensity (a.u.)
5,GCCCCACATGTCAGGTTGTTCACGTCATCACTCTCTTTCACGGAGTCACCTAGTGCAG,14800 fluorescence intensity (a.u.)
6,AATGCAAGGACCACGCCGCCGACGAGCACCACCAGCCATGCGGAGTCACCTAGTGCAG,8430 fluorescence intensity (a.u.)
7,TTTGCTTCTGTTGTTAACCGTGCACCGTGCGCATACATCACGGAGTCACCTAGTGCAG,10300 fluorescence intensity (a.u.)
8,TGCCGCGCGCCATTTCTCTCGCGTCAGAAGGTTGCAACGCCGGAGTCACCTAGTGCAG,9560 fluorescence intensity (a.u.)
9,TTCTCCCGTGGTCGTCCAACTGTCCAACTGTACAGCCTGCCGGAGTCACCTAGTGCAG,8680 fluorescence intensity (a.u.)
10,TACTTGCTTTCTCCTGACTCTCAGCAAGAACATTAGTTATCGGAGTCACCTAGTGCAG,8800 fluorescence intensity (a.u.)
11,AGCGCTTGAATACACTCAACCGATCCAACATCCTCCACTTCGGAGTCACCTAGTGCAG,8220 fluorescence intensity (a.u.)
12,CGCCGCCGCACCACGCGCTCCACCCCTCTGCGACGTTGACCGGAGTCACCTAGTGCAG,13800 fluorescence intensity (a.u.)
13,TTGGCATTATTAACTAGCTGCAGCGTCACATATTTCACTACGGAGTCACCTAGTGCAG,9930 fluorescence intensity (a.u.)
14,ACTGAGTATTATTATATCCTAACTAAGTTATCGTACATTCCGGAGTCACCTAGTGCAG,8060 fluorescence intensity (a.u.)
15,CACAAACACATTCCGGCATCTATCGCAAGCCAAACCACCCCGGAGTCACCTAGTGCAG,8610 fluorescence intensity (a.u.)
16,ATTCTACTATTGATTGATCATGTGTTTTAGTTATCACATCCGGAGTCACCTAGTGCAG,8020 fluorescence intensity (a.u.)
17,GTCATATACACACAATTTTTCAGTCACATCGTACCAATTTCGGAGTCACCTAGTGCAG,10200 fluorescence intensity (a.u.)
18,ATTGCTTTTTTATATTGTAACATGATTTTACTTTCTTTTCCGGAGTCACCTAGTGCAG,10900 fluorescence intensity (a.u.)
19,ACCAGCCCGGTTGACCCTCCTGCTAGGTACAAGTGTTTTTCGGAGTCACCTAGTGCAG,10700 fluorescence intensity (a.u.)
20,GTCCACTACCCGCCACACCACCACCAGCCACATTTGATCCCGGAGTCACCTAGTGCAG,8330 fluorescence intensity (a.u.)
21,TTGCCGGGATGGGCGAGCTTTGGGCGGGATTTGATCGGCTCGGAGTCACCTAGTGCAG,13100 fluorescence intensity (a.u.)

row,Sequence,binding signal
1,TCTATTTAAAATATGGTAGGGCTTTTTATGTTTTCTACAACGGAGTCACCTAGTGCAG,10400 fluorescence intensity (a.u.)
2,GTTCTTCAGGTCGTACTCTCTCTCCTCATCAATCCAATCTCGGAGTCACCTAGTGCAG,8600 fluorescence intensity (a.u.)
3,GGATAAACTAAGCTTTTCACCTTGGACCAGGTATTTTTCCCGGAGTCACCTAGTGCAG,8940 fluorescence intensity (a.u.)
4,AAAGTAGTTCTTTTTATTTTTGTGGCTTCTAATTCTTTTCCGGAGTCACCTAGTGCAG,8210 fluorescence intensity (a.u.)
5,AATTCGAGTTGTATAAGGGTGCGTGGTTGATTTTTAGTCTCGGAGTCACCTAGTGCAG,9680 fluorescence intensity (a.u.)
6,CCACCCCACCACCCACACCCTAACACTTATAAATACCCCTCGGAGTCACCTAGTGCAG,9440 fluorescence intensity (a.u.)
7,TCACCTACGGCGCCACCGACTCGTGCTACGGCCCCTACGGCGGAGTCACCTAGTGCAG,8130 fluorescence intensity (a.u.)
8,TCGGTTTTATTGGTACGATAGTTGGTCACTACCCCTAATTCGGAGTCACCTAGTGCAG,8370 fluorescence intensity (a.u.)
9,CCCTCCGGCCGGCGCCTGTGCGCCGCTTCTTATTTCTGCCCGGAGTCACCTAGTGCAG,8490 fluorescence intensity (a.u.)
10,CTCCACTCCTCCCACACGCCCGCATCGCCGCCGCCTCTCCCGGAGTCACCTAGTGCAG,8150 fluorescence intensity (a.u.)
11,TCCGGGGTGAATACAAATGTTCAGCTTTTCTGTCCGTCTCCGGAGTCACCTAGTGCAG,8150 fluorescence intensity (a.u.)
12,GGTCCTTATATATACATCAGCACGAGCTCGCCATGGCATCCGGAGTCACCTAGTGCAG,8750 fluorescence intensity (a.u.)
13,GCCGCCATCCCCACCATCGCCGTCGCCGTCGCCTCGCCTCCGGAGTCACCTAGTGCAG,13300 fluorescence intensity (a.u.)
14,GGATAATATGGGTGGGGATGAAGTGTGGAGGTGGCATATCCGGAGTCACCTAGTGCAG,10600 fluorescence intensity (a.u.)
15,CCTATAGTTGTTTAAATGTGTCAGTTCTCTGTTTTTTATCCGGAGTCACCTAGTGCAG,8950 fluorescence intensity (a.u.)
16,TTACCTCATCCGGTTTAATATATGACGTTTAGACATGCGTCGGAGTCACCTAGTGCAG,9660 fluorescence intensity (a.u.)
17,GCGCCGTTCCTGCACGATTTCGACCGCGTCTACGCCGAGGCGGAGTCACCTAGTGCAG,9340 fluorescence intensity (a.u.)
18,TGTGGTGGAGGCCGGCTGGGTTCTCTTGGGGTTTGGCCGGCGGAGTCACCTAGTGCAG,10400 fluorescence intensity (a.u.)
19,CCATATACTCAGTTAACCATGTTAAATTTCATCTTAATAACGGAGTCACCTAGTGCAG,8860 fluorescence intensity (a.u.)
20,AAGAAATCCTCCGCCGCCGCCGCCGCCGCCGCCGCCAACGCGGAGTCACCTAGTGCAG,8090 fluorescence intensity (a.u.)
21,GTCCTCTTTTGTACCCTACTCTCGCTCACAGTAGCCGCTTCGGAGTCACCTAGTGCAG,9780 fluorescence intensity (a.u.)

row,Sequence,binding signal
1,GTTTTTTAATATGTATGTATGCAAAGTTTGTATACACGTACGGAGTCACCTAGTGCAG,8070 fluorescence intensity (a.u.)
2,CTGCTCCGCCGCCGCCGCCGCCGTCCTCGATCCATCCATGCGGAGTCACCTAGTGCAG,9110 fluorescence intensity (a.u.)
3,CACCGATTGCTCTCTCTTTGACCAAACAAAGACCGGGGCACGGAGTCACCTAGTGCAG,8670 fluorescence intensity (a.u.)
4,GTTCTTTACCGGCATCGCTTACTTTGTTAATGTAAATTAACGGAGTCACCTAGTGCAG,8820 fluorescence intensity (a.u.)
5,TTTAATCAAATGTACTAGTACTGTTTTCTGGCGGAGCTACCGGAGTCACCTAGTGCAG,8040 fluorescence intensity (a.u.)
6,ATATATGCCACCCCATTCCTCGCCCACACGCGCAGCACACCGGAGTCACCTAGTGCAG,8870 fluorescence intensity (a.u.)
7,ATGCATTAGCTAATTTTGACTCATTTCTTAATTCTTATACCGGAGTCACCTAGTGCAG,8110 fluorescence intensity (a.u.)
8,GCCACATGACCGCATTCAAAGTTTCGGCTCCTCTGTTTCCCGGAGTCACCTAGTGCAG,12300 fluorescence intensity (a.u.)
9,TCACTCGTCCTCTTATTCGCTACTAATTTCCTTCGCACATCGGAGTCACCTAGTGCAG,11300 fluorescence intensity (a.u.)
10,TTATTTTGTGTCGATATGTAGTTCCATAGTTAGTGAAAGTCGGAGTCACCTAGTGCAG,8320 fluorescence intensity (a.u.)
11,TGTTACTTTTGTGTGATCTGTGTGGATGGGTCTTTTTTTCCGGAGTCACCTAGTGCAG,13500 fluorescence intensity (a.u.)
12,GTACTTCATGTAGCTGCGCCAGGTGTGCCAGATGGTTTCTCGGAGTCACCTAGTGCAG,10200 fluorescence intensity (a.u.)
13,TGCGTGATGATATATTGACTGCTCCATCTCTCGTCTCGCGCGGAGTCACCTAGTGCAG,8630 fluorescence intensity (a.u.)
14,TGTTTGTGTTTGGTATGGTTTGTTTCTCGATCGGTACATCCGGAGTCACCTAGTGCAG,14700 fluorescence intensity (a.u.)
15,GACGAGGGCACGGCCGTCACTTCCTACGCGTGGGGATCACCGGAGTCACCTAGTGCAG,8250 fluorescence intensity (a.u.)
16,CCAAAAACCTCTACTCTTCCGCGTCTTGGAAAATTCTTCTCGGAGTCACCTAGTGCAG,9300 fluorescence intensity (a.u.)
17,CCCGCTCGTCTAAAACCCTCGACCTCCTCGCCTCATCCACCGGAGTCACCTAGTGCAG,10300 fluorescence intensity (a.u.)
18,AGGTTATTTTTTCCTTACCTTTTTTTTTTCTGATACTACTCGGAGTCACCTAGTGCAG,9920 fluorescence intensity (a.u.)
19,TACTTTACCATTGTGGGTGCTCTAATTTCTACACTGTCCTCGGAGTCACCTAGTGCAG,8600 fluorescence intensity (a.u.)
20,CGCCTCCACGCCGCCCGTACACCGATCGCGATCTCTGTCGCGGAGTCACCTAGTGCAG,9060 fluorescence intensity (a.u.)
21,GGAATACATTTATATCGCTCTCTTTTATATTATAGGTCATCGGAGTCACCTAGTGCAG,8850 fluorescence intensity (a.u.)
